Results from PubChem BioAssay AID624297 (National Center for Advancing Translational Sciences (NCATS), 2012).
The campaign covered roughly 340,000 compounds. About 6,200 (1.8%) were called active. This list was built around the results that the source calls inconclusive (neither active nor inactive); the mix of calls is not that of the screen. Calls come from the whole dose curve; as a rule, active = well fitted activation curve with a large enough effect; inconclusive = small, poorly fitted or top-dose-only effect; inactive = no such curve, though single readings can be large or run the other way. Where the call is inconclusive, the potency comes from a doubtful curve fit.

Experiment: A quantitative high throughput screen for small molecules that induce DNA re-replication in SW480 colon adenocarcinoma cells. For re-replication activation: % of control where 0% means no effect. Note: nearly all actives have a fitted effect of over 55% in size.
Settings: Hoechst DNA content imaging, 48 h; re-replication activation: at 46.1 µM (top of the series)
Summary of the method: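 Hoechst fluorescence of nuclei (405 nm excitation, 500-530 nm emission) measured by plate-scanning imager after 48 hr compound exposure at 37 C; re-replication scored as increased number of nuclei with elevated intensity.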
Potency is the fitted concentration of half-maximal effect.

SMILES	Potency	re-replication activation
COCCOCC(O)CN1CCN(c2ccccc2)CC1 (configuration not stated)	inconclusive: 0.0651 µM [activator, full curve, poor fit]	–
COC(=O)[C@]1(C)N[C@H](CN(C)C(C)=O)[C@@H]2C(=O)N(Cc3ccccc3)C(=O)[C@@H]21	inconclusive: 6.51 µM [activator, single point]	–
Cn1cccc1/C=N\NC(=O)c1cncc(Br)c1	inconclusive: 18.4 µM [activator, single point]	–
O=C(CCCC(=O)c1ccccc1)NCCc1ccccc1F	–	inactive: -7.37%
NCCCCc1cn(CC(=O)N2CCNCC2)nn1	inconclusive: 2.91 µM [activator, single point]	–
Cn1c(SCC(=O)c2ccc(F)cc2)nnc1-c1ccccn1	inconclusive: 29.1 µM [activator, single point]	–
COc1ccc(C2c3c(ncn(CCCO)c3=N)Oc3ccc4ccccc4c32)cc1 (configuration not stated)	inconclusive: 29.1 µM [activator, single point]	–
OC(CNCCc1ccccc1)COc1ccc(OCC(O)CNCCc2ccccc2)cc1 (configuration not stated)	inconclusive: 20.6 µM [activator, single point]	–
CCCCn1c(SCc2nc3ccccc3s2)nc2cc(S(N)(=O)=O)ccc21	inconclusive: 29.1 µM [activator, single point]	–
COc1ccc(C(=O)/C=C/c2ccccc2OC)c(OC(=O)c2ccc([N+](=O)[O-])cc2)c1	inconclusive: 31.6 µM [activator, single point]	–
NC1=NC2=C(CCCC2)C2(CCCCC2)S1	inconclusive: 14.6 µM [activator, partial curve]	–
COc1ccc(C)c2sc(N(CCCN(C)C)C(=O)c3ccc(S(=O)(=O)N4CCc5ccccc5C4)cc3)nc12	inconclusive: 3.98 µM [activator, full curve, poor fit]	–
CC1CCN(S(=O)(=O)c2ccc(Cl)cc2Br)CC1	inconclusive: 4.11 µM [activator, single point]	–
O=c1c2cc(F)ccc2sn1-c1ccccc1	inconclusive: 29.1 µM [activator, single point]	–
NC1=NC[C@H](c2ccccc2)N1CCc1cc(C(F)(F)F)cc(C(F)(F)F)c1	inconclusive: 29.1 µM [activator, single point]	–
CCCn1c(=N)n(CC(O)c2ccc(C)cc2)c2ccccc21 (configuration not stated)	inconclusive: 18.4 µM [activator, single point]	–
CC[C@H](C)[C@H](NC(=O)c1ccc(Cl)cc1)C(=O)OCC(=O)c1ccc2c(c1)NC(=O)CO2	inconclusive: 22.4 µM [activator, single point]	–

Rewritten with bars between the fields: part of the list above
SMILES | Potency | re-replication activation
CCCn1c(=N)n(CC(O)c2ccc(C)cc2)c2ccccc21 (configuration not stated) | inconclusive: 18.4 µM [activator, single point] | –
CC[C@H](C)[C@H](NC(=O)c1ccc(Cl)cc1)C(=O)OCC(=O)c1ccc2c(c1)NC(=O)CO2 | inconclusive: 22.4 µM [activator, single point] | –
